The values that follow come from PMC7819943, “Rice protein-binding microarrays: a tool to detect cis-acting elements near promoter regions in rice”.

The list shows a part of the results.

This assay concerns the target T1, OsSMF1 (Oryza sativa, UniProt Q6ZLB0 1-436).
T1 sequence: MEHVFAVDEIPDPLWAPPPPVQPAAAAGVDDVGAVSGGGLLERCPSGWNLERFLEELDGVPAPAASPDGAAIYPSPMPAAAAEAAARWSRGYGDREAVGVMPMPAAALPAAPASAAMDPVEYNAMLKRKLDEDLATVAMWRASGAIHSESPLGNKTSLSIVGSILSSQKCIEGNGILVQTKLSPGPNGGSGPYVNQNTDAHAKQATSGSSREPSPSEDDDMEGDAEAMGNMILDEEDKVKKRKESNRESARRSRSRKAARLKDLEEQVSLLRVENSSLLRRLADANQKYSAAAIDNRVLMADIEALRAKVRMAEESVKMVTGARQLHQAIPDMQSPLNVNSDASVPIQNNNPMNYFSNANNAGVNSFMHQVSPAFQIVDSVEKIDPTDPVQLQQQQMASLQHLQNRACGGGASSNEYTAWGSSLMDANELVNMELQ
Description: protein-binding microarray (RPBM); PBS, 2% BSA, 51.3 ng/ul salmon testes DNA, 50 uM zinc acetate, 200 nM TF, 25 C, 1 h; high values mean tight binding. As to conditions: protein: recombinant; tags: N-terminal polyhistidine and DsRed monomer fusion (pET32a); chain copies: 2; label: CyDye5-dUTP incorporated in the synthesized complementary strand; 3' TTTTT single-stranded linker to array surface; dsDNA, one strand shown. The procedure, abridged: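 Binding signal is defined as the fluorescence intensity of each feature in arbitrary units, read on an Axon 4000B scanner. Transcription factors with N-terminal polyhistidine and DsRed fusions came from E. coli BL21-CodonPlus and were purified on Ni–NTA. They were incubated at 200 nM for 1 h at 25 °C on a custom Agilent array that had been made double-stranded with Cy5-dUTP, with 50 µM zinc acetate present, and the array was washed.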
For the sequence “ACAAACGAACAAGACATGAAGCCGATGAGTCCAGCAGAGCCGGAGTCACCTAGTGCAG”, the binding signal was 3170 fluorescence intensity (a.u.).

For “ATGGCTCTATCATTGACGGTGACGACTGCATATGTTAAGGCGGAGTCACCTAGTGCAG”, the binding signal was 4460 fluorescence intensity (a.u.).

As to “CTACTACTGGTAAAGTACGCACGTTCTGCACGTGTCACATCGGAGTCACCTAGTGCAG”, the binding signal is 9280 fluorescence intensity (a.u.).

As to “GCAACACCAACGACGCAGCAATCTCTCTTCCATCTCTCTCCGGAGTCACCTAGTGCAG”, the binding signal was 3170 fluorescence intensity (a.u.).

Regarding “CGGGATTCGTGAGGAGGAGGAAGACCTTTTCCCTTCGCGTCGGAGTCACCTAGTGCAG”, the binding signal is 5370 fluorescence intensity (a.u.).

“GCCATTGTATGGCGGTACCGGATTGGGGTGTGACACGGGTCGGAGTCACCTAGTGCAG”: the binding signal was 3480 fluorescence intensity (a.u.).

“GAAGGAGGAGTCACCGTGCGTTGTTACCACTCCACTGCTCCGGAGTCACCTAGTGCAG”: the binding signal is 4040 fluorescence intensity (a.u.).

Turning to “CATCTTACTGGTCAGATCCTTGGTCATGCATATCTGTTCCCGGAGTCACCTAGTGCAG”, the binding signal was 3650 fluorescence intensity (a.u.).

Consider “GAGGCCGCGTCCCGCGTGCGTGCGTCTGTCGCGGTCGCGGCGGAGTCACCTAGTGCAG”, for which the binding signal is 4170 fluorescence intensity (a.u.).

Consider “TCTCTCTCTCGAGCAGAGCAGAGCACGCCGTCATCCTCGTCGGAGTCACCTAGTGCAG”, for which the binding signal is 3140 fluorescence intensity (a.u.).

Consider “CAAACTCCAGTGTCTCCCCACTCCATAGTGACACTGCGCCCGGAGTCACCTAGTGCAG”, for which the binding signal was 4000 fluorescence intensity (a.u.).

“GCGGTTCTTCATCGACAGCCACGTGGCGAGCCCGGAGGCGCGGAGTCACCTAGTGCAG”: the binding signal is 11900 fluorescence intensity (a.u.).

As for “CCAAACCCTATGCCGCTGAATGCTGATGCTGTTGATGCATCGGAGTCACCTAGTGCAG”, the binding signal was 4400 fluorescence intensity (a.u.).

As for “ACACTCTACACTCCCACTACTCCGAACACGTGTCGGCCTCCGGAGTCACCTAGTGCAG”, the binding signal was 11700 fluorescence intensity (a.u.).

Consider “ACGTCTCCTCGTCACCACTCGCCACAAGTCCACCGCAGCACGGAGTCACCTAGTGCAG”, for which the binding signal was 5360 fluorescence intensity (a.u.).

As to “TACTACAAATCAAAATGCAAGCATATCCAATCATCACCTCCGGAGTCACCTAGTGCAG”, the binding signal is 3290 fluorescence intensity (a.u.).

Take “CTCATCGTCCTCCACGTGTCCACCCATACACGTGTCGCCACGGAGTCACCTAGTGCAG”: the binding signal is 29800 fluorescence intensity (a.u.).

For the sequence “TTGTGTCGTTGACCTGCATGTTTTGAATCATGCTGGAAACCGGAGTCACCTAGTGCAG”, the binding signal was 3700 fluorescence intensity (a.u.).

As for “AAAGAGCGGTGATGACGGTGTGTAGAGTGGCAGTTAGTTGCGGAGTCACCTAGTGCAG”, the binding signal was 4150 fluorescence intensity (a.u.).

Regarding “TTACCTTCAATTTCTTCTGCCACACTCAAAGCATAAGCAACGGAGTCACCTAGTGCAG”, the binding signal is 27200 fluorescence intensity (a.u.).

As to “CGCCCAACCGCCTCCCGCCACACACACACGACACAACCCGCGGAGTCACCTAGTGCAG”, the binding signal was 3860 fluorescence intensity (a.u.).

For the sequence “GTTTTGGTGGAGTGTTGCATCAGCTCGATGCTCTCGTTGCCGGAGTCACCTAGTGCAG”, the binding signal was 3470 fluorescence intensity (a.u.).

As to “CTTGTTGGATCATTGCTGATTTCAGTATAATTCGTCAGCACGGAGTCACCTAGTGCAG”, the binding signal was 5880 fluorescence intensity (a.u.).

“GACCCTCCAGCGCAGGTGCTTCTCGTCATCGCCTCCCGACCGGAGTCACCTAGTGCAG”: the binding signal was 5190 fluorescence intensity (a.u.).

For the sequence “AATTTTCTGCGGGGAAAGCGATAAGGCTCCCGCCGCACCGCGGAGTCACCTAGTGCAG”, the binding signal was 14700 fluorescence intensity (a.u.).

For the sequence “CGCGTAGCCATTCCCCGCCAGCTGGCAGAAGGCCAAGCAGCGGAGTCACCTAGTGCAG”, the binding signal is 6360 fluorescence intensity (a.u.).

On to “ACGTTATCCATTGCAAAATCGTACACCGGAAATATTTCTTCGGAGTCACCTAGTGCAG”, for which the binding signal is 23700 fluorescence intensity (a.u.).

In the case of “TCATCTCATATATGGTTTGACCGCGATGGTTTGTTTGCCACGGAGTCACCTAGTGCAG”, the binding signal is 31900 fluorescence intensity (a.u.).

Take “TGGCATGAATTGTACTACTGACACTACTAGTGTACTATTACGGAGTCACCTAGTGCAG”: the binding signal was 23800 fluorescence intensity (a.u.).

In the case of “AGTGATTGTGTTTAATCTTAATGACTCGCTCCCCTCACACCGGAGTCACCTAGTGCAG”, the binding signal was 3270 fluorescence intensity (a.u.).

Take “GGGTTCAGTTGCCTCCCTGTCAGTCACTAGTGGAACACAGCGGAGTCACCTAGTGCAG”: the binding signal is 3260 fluorescence intensity (a.u.).

“GTTCACTCCTACCCACGACACGCGTCGCGCCGTGTCATCTCGGAGTCACCTAGTGCAG”: the binding signal was 9430 fluorescence intensity (a.u.).

As to “ATGGAAATGGCCACCATCATCACCAACTACTTTTATGGAACGGAGTCACCTAGTGCAG”, the binding signal is 3320 fluorescence intensity (a.u.).

Regarding “CTACCTACCAATGGACCTACTCGTTAGGTACCGTAGCCGACGGAGTCACCTAGTGCAG”, the binding signal is 3640 fluorescence intensity (a.u.).

Consider “CTCACGCCACCGAGTCGCGCCGACGTCATCATTGTGCCGTCGGAGTCACCTAGTGCAG”, for which the binding signal was 10300 fluorescence intensity (a.u.).

In the case of “AGGCGGAGGCGACGCCGCCGCGGACGACGTGGACGTCGACCGGAGTCACCTAGTGCAG”, the binding signal is 6790 fluorescence intensity (a.u.).

Consider “ACTTATGTTGGGTTTCATTTATTCTCGGTCGAATCATGCTCGGAGTCACCTAGTGCAG”, for which the binding signal is 3360 fluorescence intensity (a.u.).

Regarding “GATTCTACCGAGAGCGAGCTGTAATAATAACTTCTACCCGCGGAGTCACCTAGTGCAG”, the binding signal is 30200 fluorescence intensity (a.u.).

For “AGGCATGCGTGCGATGTACCGAAATGTGTCGCCACTGCTGCGGAGTCACCTAGTGCAG”, the binding signal is 30400 fluorescence intensity (a.u.).

Take “GATTAACATGTTAAATGTATATGAGACTGTTTAGTAGAATCGGAGTCACCTAGTGCAG”: the binding signal was 4220 fluorescence intensity (a.u.).

For “GAATGCATGTCCCAGTCATACTAATCGACTCACTTTCACACGGAGTCACCTAGTGCAG”, the binding signal is 6240 fluorescence intensity (a.u.).

Consider “TGGATTTTGCACCGATCGCACCACGTCTCCGTCTGTTTGCCGGAGTCACCTAGTGCAG”, for which the binding signal is 4240 fluorescence intensity (a.u.).
